Reference: publication PMC4357729
Results are given in words; binding and its absence hold for the method and conditions named. In cells and extracts the contact can be indirect. A yes stands for co-enrichment or nearness to the bait. Other partners may have been found.

Amino acid sequences for entries named in this document (tags omitted).
UniProt Q80U78: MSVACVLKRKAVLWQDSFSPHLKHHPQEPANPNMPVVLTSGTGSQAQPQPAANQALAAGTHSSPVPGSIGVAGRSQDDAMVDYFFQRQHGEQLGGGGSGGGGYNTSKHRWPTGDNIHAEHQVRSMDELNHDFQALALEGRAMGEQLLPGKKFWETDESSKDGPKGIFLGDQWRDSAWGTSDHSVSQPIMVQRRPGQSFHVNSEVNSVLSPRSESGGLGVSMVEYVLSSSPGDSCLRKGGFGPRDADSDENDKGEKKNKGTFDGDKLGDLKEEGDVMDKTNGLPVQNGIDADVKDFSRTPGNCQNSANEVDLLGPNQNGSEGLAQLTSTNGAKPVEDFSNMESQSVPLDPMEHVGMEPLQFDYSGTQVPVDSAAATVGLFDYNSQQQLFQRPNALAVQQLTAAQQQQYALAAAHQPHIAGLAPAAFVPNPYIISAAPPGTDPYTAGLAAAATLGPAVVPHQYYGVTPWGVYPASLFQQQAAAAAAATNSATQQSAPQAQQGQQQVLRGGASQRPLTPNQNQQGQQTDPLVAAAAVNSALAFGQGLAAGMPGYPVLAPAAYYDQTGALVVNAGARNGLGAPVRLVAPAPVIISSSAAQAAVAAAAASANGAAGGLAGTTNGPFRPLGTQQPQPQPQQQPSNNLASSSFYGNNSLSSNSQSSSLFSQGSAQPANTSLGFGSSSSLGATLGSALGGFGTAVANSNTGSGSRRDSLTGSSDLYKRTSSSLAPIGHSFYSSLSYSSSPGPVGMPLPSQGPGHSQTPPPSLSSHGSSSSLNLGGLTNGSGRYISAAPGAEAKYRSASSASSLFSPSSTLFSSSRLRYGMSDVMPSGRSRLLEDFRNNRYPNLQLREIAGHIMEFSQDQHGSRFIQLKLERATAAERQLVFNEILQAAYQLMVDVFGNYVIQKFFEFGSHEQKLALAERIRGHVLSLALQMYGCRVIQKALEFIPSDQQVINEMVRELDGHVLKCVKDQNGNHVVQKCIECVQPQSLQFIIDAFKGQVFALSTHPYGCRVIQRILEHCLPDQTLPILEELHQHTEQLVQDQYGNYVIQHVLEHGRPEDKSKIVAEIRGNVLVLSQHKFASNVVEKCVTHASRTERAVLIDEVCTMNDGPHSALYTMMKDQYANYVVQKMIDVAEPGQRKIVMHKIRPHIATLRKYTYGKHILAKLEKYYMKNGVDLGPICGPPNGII
UniProt Q6ZQ08: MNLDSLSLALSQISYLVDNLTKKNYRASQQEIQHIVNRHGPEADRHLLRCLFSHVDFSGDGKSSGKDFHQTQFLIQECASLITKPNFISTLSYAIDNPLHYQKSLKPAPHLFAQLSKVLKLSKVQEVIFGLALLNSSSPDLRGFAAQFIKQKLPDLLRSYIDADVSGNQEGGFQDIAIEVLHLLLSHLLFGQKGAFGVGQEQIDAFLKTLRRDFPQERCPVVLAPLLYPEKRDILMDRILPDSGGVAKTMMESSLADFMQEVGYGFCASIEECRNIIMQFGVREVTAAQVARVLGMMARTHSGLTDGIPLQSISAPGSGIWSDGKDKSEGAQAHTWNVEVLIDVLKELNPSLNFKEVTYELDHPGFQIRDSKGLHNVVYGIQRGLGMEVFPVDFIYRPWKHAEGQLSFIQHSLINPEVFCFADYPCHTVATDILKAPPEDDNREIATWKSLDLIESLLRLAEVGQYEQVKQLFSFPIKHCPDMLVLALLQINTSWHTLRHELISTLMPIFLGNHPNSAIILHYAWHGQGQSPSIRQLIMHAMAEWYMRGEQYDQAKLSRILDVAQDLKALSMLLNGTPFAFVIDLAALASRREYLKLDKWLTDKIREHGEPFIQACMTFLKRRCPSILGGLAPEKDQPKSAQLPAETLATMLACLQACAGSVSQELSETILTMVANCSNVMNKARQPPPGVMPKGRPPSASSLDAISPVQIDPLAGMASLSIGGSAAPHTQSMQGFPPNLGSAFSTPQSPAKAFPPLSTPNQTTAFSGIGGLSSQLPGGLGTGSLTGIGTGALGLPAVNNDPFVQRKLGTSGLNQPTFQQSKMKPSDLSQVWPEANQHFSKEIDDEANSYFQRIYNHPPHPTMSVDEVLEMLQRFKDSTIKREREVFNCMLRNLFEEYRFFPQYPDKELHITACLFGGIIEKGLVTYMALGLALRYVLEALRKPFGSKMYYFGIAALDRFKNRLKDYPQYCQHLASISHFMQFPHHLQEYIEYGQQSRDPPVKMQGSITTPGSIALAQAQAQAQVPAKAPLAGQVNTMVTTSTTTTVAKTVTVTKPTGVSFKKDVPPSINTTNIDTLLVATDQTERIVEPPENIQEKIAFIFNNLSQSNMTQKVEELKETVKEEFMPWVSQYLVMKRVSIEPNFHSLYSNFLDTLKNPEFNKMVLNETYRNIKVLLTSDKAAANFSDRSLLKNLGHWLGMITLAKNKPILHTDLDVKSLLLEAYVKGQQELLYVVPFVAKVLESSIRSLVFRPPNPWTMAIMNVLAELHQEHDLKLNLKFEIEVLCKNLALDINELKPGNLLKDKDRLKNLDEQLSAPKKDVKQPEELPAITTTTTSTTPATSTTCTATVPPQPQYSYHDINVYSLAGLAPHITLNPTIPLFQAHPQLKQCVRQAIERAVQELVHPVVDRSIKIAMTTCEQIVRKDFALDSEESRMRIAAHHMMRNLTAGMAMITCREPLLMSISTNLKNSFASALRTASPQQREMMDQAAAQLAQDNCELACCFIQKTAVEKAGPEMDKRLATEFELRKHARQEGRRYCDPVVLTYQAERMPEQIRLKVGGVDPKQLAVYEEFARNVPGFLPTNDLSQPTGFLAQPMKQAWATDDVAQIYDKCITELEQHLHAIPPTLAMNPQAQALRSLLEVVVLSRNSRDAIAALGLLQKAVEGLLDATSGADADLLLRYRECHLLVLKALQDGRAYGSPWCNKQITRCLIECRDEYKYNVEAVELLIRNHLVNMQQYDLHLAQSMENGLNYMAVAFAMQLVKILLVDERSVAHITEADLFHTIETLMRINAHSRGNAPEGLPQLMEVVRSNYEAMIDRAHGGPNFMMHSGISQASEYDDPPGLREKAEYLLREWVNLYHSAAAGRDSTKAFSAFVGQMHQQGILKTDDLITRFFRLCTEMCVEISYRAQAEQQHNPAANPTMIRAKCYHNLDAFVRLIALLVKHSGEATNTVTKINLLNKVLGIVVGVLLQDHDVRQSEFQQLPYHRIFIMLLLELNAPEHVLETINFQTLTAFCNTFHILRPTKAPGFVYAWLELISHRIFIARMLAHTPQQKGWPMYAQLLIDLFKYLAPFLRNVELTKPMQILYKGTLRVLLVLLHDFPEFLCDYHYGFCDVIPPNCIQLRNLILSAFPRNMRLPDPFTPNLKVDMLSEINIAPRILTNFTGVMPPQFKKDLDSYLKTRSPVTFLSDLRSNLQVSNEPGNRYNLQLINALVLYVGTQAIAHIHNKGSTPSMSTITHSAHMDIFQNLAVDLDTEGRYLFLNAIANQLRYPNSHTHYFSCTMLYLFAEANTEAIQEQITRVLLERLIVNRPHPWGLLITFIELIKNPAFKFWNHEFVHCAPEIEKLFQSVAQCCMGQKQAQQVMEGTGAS
UniProt Q9CZY3: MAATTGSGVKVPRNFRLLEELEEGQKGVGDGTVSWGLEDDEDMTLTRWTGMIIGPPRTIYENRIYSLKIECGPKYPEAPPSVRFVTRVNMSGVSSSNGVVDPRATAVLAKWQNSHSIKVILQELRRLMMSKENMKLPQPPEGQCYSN
UniProt Q8CJG0: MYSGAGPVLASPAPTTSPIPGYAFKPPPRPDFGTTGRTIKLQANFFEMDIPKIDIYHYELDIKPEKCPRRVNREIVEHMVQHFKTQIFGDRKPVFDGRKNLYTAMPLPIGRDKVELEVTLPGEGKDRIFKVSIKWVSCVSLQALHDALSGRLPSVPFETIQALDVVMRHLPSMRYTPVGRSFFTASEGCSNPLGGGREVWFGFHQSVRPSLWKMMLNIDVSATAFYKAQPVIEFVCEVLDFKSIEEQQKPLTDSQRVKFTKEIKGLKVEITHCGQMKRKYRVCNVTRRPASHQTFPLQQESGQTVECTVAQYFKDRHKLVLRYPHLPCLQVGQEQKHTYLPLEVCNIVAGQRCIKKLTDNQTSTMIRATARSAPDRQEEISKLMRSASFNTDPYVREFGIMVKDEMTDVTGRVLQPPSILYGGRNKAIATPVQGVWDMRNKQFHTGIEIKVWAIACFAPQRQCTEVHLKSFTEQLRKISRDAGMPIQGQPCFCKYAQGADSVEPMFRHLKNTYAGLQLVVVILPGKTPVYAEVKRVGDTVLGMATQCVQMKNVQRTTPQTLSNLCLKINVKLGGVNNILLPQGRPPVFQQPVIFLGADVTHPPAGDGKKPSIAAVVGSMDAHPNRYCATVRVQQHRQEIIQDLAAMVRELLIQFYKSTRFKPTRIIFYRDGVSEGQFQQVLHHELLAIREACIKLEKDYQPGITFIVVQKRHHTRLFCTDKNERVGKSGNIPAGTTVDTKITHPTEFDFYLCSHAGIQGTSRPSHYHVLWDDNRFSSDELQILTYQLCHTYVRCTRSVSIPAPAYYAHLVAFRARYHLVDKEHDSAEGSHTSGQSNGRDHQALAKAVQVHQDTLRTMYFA

Columns and labels:
[1] = target: T1, TRIM32 (endogenous, mouse) (mouse (endogenous in NSCs and brain)) (UniProt Q8CH72); assay: affinity purification with mass spectrometry; TRIM32 precipitated with anti-TRIM32 antibodies (1137/3149) on protein-G Sepharose from cytoplasmic and nuclear fractions of mouse NSCs under maintenance conditions or 3 days after induction of neuronal differentiation; Benzonase added; eluted with two TRIM32 peptides; LC-MS/MS; negative control anti-EGFP on whole-mouse brain lysate; conducted only once
T1 sequence: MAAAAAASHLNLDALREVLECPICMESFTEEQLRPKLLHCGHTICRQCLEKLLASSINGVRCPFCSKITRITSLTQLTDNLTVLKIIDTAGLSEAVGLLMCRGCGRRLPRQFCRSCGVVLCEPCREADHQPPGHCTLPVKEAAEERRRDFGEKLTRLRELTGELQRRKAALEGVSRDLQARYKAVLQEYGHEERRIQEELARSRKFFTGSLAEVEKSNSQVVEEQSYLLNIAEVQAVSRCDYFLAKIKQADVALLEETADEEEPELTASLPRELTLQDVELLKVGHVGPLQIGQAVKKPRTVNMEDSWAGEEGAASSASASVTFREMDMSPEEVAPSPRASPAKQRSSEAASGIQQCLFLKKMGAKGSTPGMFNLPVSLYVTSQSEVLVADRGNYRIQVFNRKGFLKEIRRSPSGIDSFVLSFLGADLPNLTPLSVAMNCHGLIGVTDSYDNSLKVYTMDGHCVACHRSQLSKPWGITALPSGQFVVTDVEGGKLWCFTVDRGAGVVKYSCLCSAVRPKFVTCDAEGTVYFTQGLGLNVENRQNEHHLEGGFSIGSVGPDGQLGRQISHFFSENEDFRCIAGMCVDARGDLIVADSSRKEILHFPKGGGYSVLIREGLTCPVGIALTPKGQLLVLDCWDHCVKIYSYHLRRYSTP

[2] = target: T1, TRIM32 (endogenous, mouse) (mouse (endogenous in NSCs and brain)); assay: affinity purification with mass spectrom

| Substance | binding [1] | binding [2] |
| --- | --- | --- |
| Pumilio 1 (endogenous, mouse) (from UniProt Q80U78 1-1189) | binds | – |
| tropomyosin-1α (from UniProt P58771 1-284) | – | binds |

Other lines, results leading:

| binding [1] | binding [2] | Substance |
| --- | --- | --- |
| binds | – | CNOT1 (from UniProt Q6ZQ08 1-2375) |
| – | binds | UBE2V1 (from UniProt Q9CZY3 1-147) |
| binds | – | Argonaute 2 (endogenous, mouse) (from UniProt Q8CJG0 1-860) |
